Laboratory results published in the supplement of paper PMC12889115.
Some of the results follow. These are raw signals, not scaled to a control.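 First-pass screen: polymyxin B was added at a level that permeabilizes the Salmonella outer membrane while sparing the inner membrane. DMSO wells, with and without polymyxin B, defined maximum growth. Because plates differed from one another, each plate's data were ranked separately and the compounds with the lowest OD600 were carried forward as hits.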

Tested on: Salmonella enterica serovar Typhimurium SL1344
Assay: bacterial growth OD600 after 18 h with compound and polymyxin B; higher = more bacterial growth (less inhibition)
Conditions: 50 µM, Mueller-Hinton broth

Compound | bacterial growth OD600 (polymyxin B 1 µg/mL) | bacterial growth OD600 (polymyxin B 0.75 µg/mL)
Cc1ccc(CNC(=O)c2ccc(OC3CCN(C(=O)C4CC4)CC3)cc2)s1 | 1.1 | 
CC(Cc1cccnc1)NC1CCN(c2ccc(CC(=O)NCCc3cccc(F)c3)cc2)CC1 (stereo not given) |  | 0.877
CC(=O)c1cccc(CN2CCCC(C(=O)Nc3ccc(-n4ccnc4C)cc3)C2)c1 (stereo not given) | 0.826 | 
CCS(=O)(=O)c1ncc(CN2CCCCO2)n1CCCc1ccccc1 | 1.1 | 
CCOC(=O)N1CCC(NC2CCN(c3ccc(C(=O)NCCN4CCOCC4)cc3)CC2)CC1 |  | 0.759
O=C(c1ccccc1OC1CCN(Cc2ccccn2)CC1)N1CCC[C@H]1CO | 0.857 | 
CCn1ccnc1CN1C[C@H]2OC(=O)N(CCc3ccc(OC)cc3)[C@H]2C1 |  | 0.806
COCCN1C(=O)NC(Cc2ccc(F)cc2)(C2CCN(C(=O)CCC(C)C)CC2)C1=O (stereo not given) |  | 0.852
CCn1ccnc1CNCc1ccc2[nH]c3c(c2c1)CCCCC3 | 1.05 | 
O=C(NCCCc1ccccc1)C1CC12CCN(C(=O)c1cccc(-c3ccccc3F)c1)CC2 (stereo not given) |  | 0.021
CN(C)CCN(Cc1ccccc1O)CC1CCCN(Cc2ccccc2F)C1 (stereo not given) |  | 0.811
CN(C(=O)c1ccccn1)C(Cc1ccccc1)C1CCN(C(=O)c2ccc3c(c2)no[n+]3[O-])CC1 (stereo not given) |  | 0.799
CCOC(=O)C1(Cc2ccc(F)cc2)CCCN(C(=O)c2ccncc2)C1 (stereo not given) |  | 0.758
C=CCC(=O)N1CCCC1C(=O)Nc1ccccc1-c1ccc(OC)cc1 (stereo not given) | 0.901 | 
COCc1ccc(C(=O)N2CCC(C(Cc3ccccc3C)N(C)C(=O)Cn3cccn3)CC2)o1 (stereo not given) |  | 0.836
Cc1cc(C)n(Cc2cc(C(=O)N(C)Cc3n[nH]c4c3CCCC4)n[nH]2)n1 | 0.892 | 
Cc1cc(C)n(-c2cccc(CN(C)C(=O)c3ccc(-n4cc(NC(=O)c5ccoc5)cn4)cc3)c2)n1 |  | 0.583
CCc1cc(C(=O)NC(C)c2cnc(-c3ccncc3)nc2C)n(C)n1 (stereo not given) | 1.31 | 
O=C(NC1CCOC1)C1CCN(c2nc(-c3ccccc3)nc3c2CCC3)CC1 (stereo not given) |  | 0.822
Cc1nccn1CCCNC(=O)c1cn(Cc2c(F)cccc2F)nn1 | 1.22 | 
O=C(CC(c1ccccc1)c1ccccc1Cl)NCc1ccon1 (stereo not given) | 0.673 | 
O=C(Nc1ccnn1C1CCN(CCCn2cccn2)CC1)C1CCOC1 (stereo not given) | 1.27 | 
CCC1CN(CC(=O)N2CCN(CC(=O)N(C)C)CC2)Cc2ccc(Cl)cc2O1 (stereo not given) |  | 1.03
COCCCNC(=O)c1cnn(-c2nccc(-c3cc(OC)ccc3OC)n2)c1C1CC1 |  | 0.988
CCN1CCC(C(=O)Nc2ccc(-n3nc(C)cc3C)cc2)CC1 | 0.931 | 
COCC(=O)Nc1cc(C(=O)NC2CCc3ccccc32)cc2ncn(CCc3ccccc3)c12 (stereo not given) |  | 0.832
O=C(NCC[C@@H]1CCCN2CCCC[C@H]12)c1cn(Cc2ccccc2F)nn1 | 0.986 | 
COCC(=O)Nc1cc(C(=O)NCc2cc(OC)ccc2OC)c2c(c1)nc(C1CCC1)n2C |  | 0.914
O=C(NCCn1cccn1)c1coc(COc2cccc(F)c2)n1 |  | 0.859
O=C(CCc1ccc2c(c1)OCO2)N1CCOc2ccc(CN3CCc4ccccc4C3)cc2C1 |  | 0.803

As a working copy, some entries already given:
Compound | bacterial growth OD600 (polymyxin B 1 µg/mL) | bacterial growth OD600 (polymyxin B 0.75 µg/mL)
CCC1CN(CC(=O)N2CCN(CC(=O)N(C)C)CC2)Cc2ccc(Cl)cc2O1 (stereo not given) |  | 1.03
COCCCNC(=O)c1cnn(-c2nccc(-c3cc(OC)ccc3OC)n2)c1C1CC1 |  | 0.988
